Data: patent US20180264134A1 (priority 2015, published 2018)

Assays:
HaCaT = experiment: Intracellular trafficking by confocal microscopy in HaCaT; type: cell-based, human; conditions: 30 min; for colocalization with EEA1 and RAB7: 4 h and 24 h
HaCaT keratinocyte cells = experiment: Internalization mechanism (endocytosis inhibitors / siRNA, flow cytometry); type: cell-based, human
Protocol: In an embodiment the HaCaT keratinocyte cells were cultured on 24 well plates (1×10^6 cells/well) and inhibited by one of the following chemicals during 30 min before adding a suspension of Rhodamine-labelled NPs (15 μg/mL): dynasor (100 μM), cytochalasin D (100 μM), nocodazole (25 uM), filipin III (1 μM) and polyinosinic acid (100 μg/mL), 5-(N-ethyl-N-isopropyl)amiloride (EIPA), dextran sulfate. The inhibitor concentrations were based in values reported in literature and further validated by us to have no cytotoxic effect over the period of the assay (6 h), as confirmed by viability assay. The incubation of the cells with NPs for different times was performed in the presence of the inhibitor. As controls, HaCaT keratinocyte cells without NPs and cells incubated with NPs without inhibitor were used. […] Cells were then evaluated as before.
In an embodiment the NP uptake mechanism was also studied on HaCaT keratinocyte cells by silencing specific proteins of clathrin-mediated endocytosis (CLTC and LDLR), caveolin-mediated endocytosis (CAV1), GEEC-CCLIC pathways (CDC42) and macropinocytosis (RAC1 and CTBP1) and scavenger receptor (SCARA3) by siRNA (Thermo Fisher). […] In all FACS analysis, a total of 10,000 events were recorded per run. […]

peptide made by a vendor = conditions: whole synthesis

| Compound | colocalization with EEA1 and RAB7 (HaCaT) | colocalization with EEA1 and RAB7 (HaCaT; listed as soluble LL37) | co-localization with P2X7 (HaCaT; immunocytochemistry) | internalization at 4° C. (HaCaT keratinocyte cells; 4° C.) | internalization in cells inhibited with polyinosinic acid or dextran sulfate (HaCaT keratinocyte cells; scavenger receptor inhibition) | final purity (method not given) (peptide made by a vendor) [%] |
| --- | --- | --- | --- | --- | --- | --- |
| CC[C@H](C)[C@H](NC(=O)[C@H](CCCCN)NC(=O)[C@H](CCC(=O)O)NC(=O)[C@H](CCCCN)NC(=O)[C@H](CO)NC(=O)[C@H](CCCCN)NC(=O)[C@H](CCCNC(=N)N)NC(=O)[C@H](Cc1ccccc1)NC(=O)[C@H](Cc1ccccc1)NC(=O)[C@H](CC(=O)O)NC(=O)CNC(=O)[C@H](CC(C)C)NC(=O)[C@@H](N)CC(C)C)C(=O)NCC(=O)N[C@@H](CCCCN)C(=O)N[C@@H](CCC(=O)O)C(=O)N[C@@H](Cc1ccccc1)C(=O)N[C@@H](CCCCN)C(=O)N[C@@H](CCCNC(=N)N)C(=O)N[C@H](C(=O)N[C@H](C(=O)N[C@@H](CCC(N)=O)C(=O)N[C@@H](CCCNC(=N)N)C(=O)N[C@H](C(=O)N[C@@H](CCCCN)C(=O)N[C@@H](CC(=O)O)C(=O)N[C@@H](Cc1ccccc1)C(=O)N[C@@H](CC(C)C)C(=O)N[C@@H](CCCNC(=N)N)C(=O)N[C@@H](CC(N)=O)C(=O)N[C@@H](CC(C)C)C(=O)N[C@H](C(=O)N1CCC[C@H]1C(=O)N[C@@H](CCCNC(=N)N)C(=O)N[C@H](C(=O)N[C@@H](CCC(=O)O)C(=O)N[C@@H](CO)C(=O)N[C@@H](CS)C(N)=O)[C@@H](C)O)C(C)C)[C@@H](C)CC)C(C)C)[C@@H](C)CC [LL37] | did not colocalize | any significant colocalization | co-localization | significant inhibition | no significant |  |
| LLGDFFRKSKEKIGKEFKRIVQRIKDFLRNLVPRTESC |  |  |  |  |  | 96 |

For part of these data: Where a sequence shows no end group, the ends are not given.
